In paper PMC8298264, “Function of cofactor Akirin2 in the regulation of gene expression in model human neutrophil-like HL60 cells” (Bioscience Reports, 2021):

B1: sp¦Q9Y5M8¦SRPRB_HUMAN (protein, UniProt Q9Y5M8 1-271, looked up)
Signal recognition particle …: MASADSRRVADGGGAGGTFQPYLDTLRQELQQTDPTLLSVVVAVLAVLLTLVFWKLIRSRRSSQRAVLLVGLCDSGKTLLFVRLLTGLYRDTQTSITDSCAVYRVNNNRGNSLTLIDLPGHESLRLQFLERFKSSARAIVFVVDSAAFQREVKDVAEFLYQVLIDSMGLKNTPSFLIACNKQDIAMAKSAKLIQQQLEKELNTLRVTRSAAPSTLDSSSTAPAQLGKKGKEFEFSQLPLKVEFLECSAKGGRGDVGSADIQDLEKWLAKIA
B2: sp¦Q9UBT2¦SAE2_HUMAN (protein, UniProt Q9UBT2 1-640, looked up)
SUMO-activating enzyme …: MALSRGLPRELAEAVAGGRVLVVGAGGIGCELLKNLVLTGFSHIDLIDLDTIDVSNLNRQFLFQKKHVGRSKAQVAKESVLQFYPKANIVAYHDSIMNPDYNVEFFRQFILVMNALDNRAARNHVNRMCLAADVPLIESGTAGYLGQVTTIKKGVTECYECHPKPTQRTFPGCTIRNTPSEPIHCIVWAKYLFNQLFGEEDADQEVSPDRADPEAAWEPTEAEARARASNEDGDIKRISTKEWAKSTGYDPVKLFTKLFKDDIRYLLTMDKLWRKRKPPVPLDWAEVQSQGEETNASDQQNEPQLGLKDQQVLDVKSYARLFSKSIETLRVHLAEKGDGAELIWDKDDPSAMDFVTSAANLRMHIFSMNMKSRFDIKSMAGNIIPAIATTNAVIAGLIVLEGLKILSGKIDQCRTIFLNKQPNPRKKLLVPCALDPPNPNCYVCASKPEVTVRLNVHKVTVLTLQDKIVKEKFAMVAPDVQIEDGKGTILISSEEGETEANNHKKLSEFGIRNGSRLQADDFLQDYTLLINILHSEDLGKDVEFEVVGDAPEKVGPKQAEDAAKSITNGSDDGAQPSTSTAQEQDDVLIVDSDEEDSSNNADVSEEERSRKRKLDEKENLSAKRSRIEQKEELDDVIALD
B3: sp¦Q8NCW5¦NNRE_HUMAN (protein, UniProt Q8NCW5 48-288, looked up)
NAD(P)H-hydrate epimerase: DSEVMASTVVKYLSQEEAQAVDQELFNEYQFSVDQLMELAGLSCATAIAKAYPPTSMSRSPPTVLVICGPGNNGGDGLVCARHLKLFGYEPTIYYPKRPNKPLFTALVTQCQKMDIPFLGEMPAEPMTIDELYELVVDAIFGFSFKGDVREPFHSILSVLKGLTVPIASIDIPSGWDVEKGNAGGIQPDLLISLTAPKKSATQFTGRYHYLGGRFVPPALEKKYQLNLPPYPDTECVYRLQ
B4: sp¦Q9NZ45¦CISD1_HUMAN (protein, UniProt Q9NZ45 2-108, looked up)
CDGSH iron-sulfur …: SLTSSSSVRVEWIAAVTIAAGTAAIGYLAYKRFYVKDHRNKAMINLHIQKDNPKIVHAFDMEDLGDKAVYCRCWRSKKFPFCDGAHTKHNEETGDNVGPLIIKKKET
B5: sp¦Q9Y6C9¦MTCH2_HUMAN (protein, UniProt Q9Y6C9 2-303, looked up)
Mitochondrial carrier homolog …: ADAASQVLLGSGLTILSQPLMYVKVLIQVGYEPLPPTIGRNIFGRQVCQLPGLFSYAQHIASIDGRRGLFTGLTPRLCSGVLGTVVHGKVLQHYQESDKGEELGPGNVQKEVSSSFDHVIKETTREMIARSAATLITHPFHVITLRSMVQFIGRESKYCGLCDSIITIYREEGILGFFAGLVPRLLGDILSLWLCNSLAYLVNTYALDSGVSTMNEMKSYSQAVTGFFASMLTYPFVLVSNLMAVNNCGLAGGCPPYSPIYTSWIDCWCMLQKEGNMSRGNSLFFRKVPFGKTYCCDLKMLI
B6: sp¦P38117¦ETFB_HUMAN (protein, UniProt P38117 2-255, looked up)
Electron transfer …: AELRVLVAVKRVIDYAVKIRVKPDRTGVVTDGVKHSMNPFCEIAVEEAVRLKEKKLVKEVIAVSCGPAQCQETIRTALAMGADRGIHVEVPPAEAERLGPLQVARVLAKLAEKEKVDLVLLGKQAIDDDCNQTGQMTAGFLDWPQGTFASQVTLEGDKLKVEREIDGGLETLRLKLPAVVTADLRLNEPRYATLPNIMKAKKKKIEVIKPGDLGVDLTSKLSVISVEDPPQRTAGVKVETTEDLVAKLKEIGRI
B7: sp¦P30084¦ECHM_HUMAN (protein, UniProt P30084 28-290, looked up)
Enoyl-CoA hydratase, …: ASGANFEYIIAEKRGKNNTVGLIQLNRPKALNALCDGLIDELNQALKTFEEDPAVGAIVLTGGDKAFAAGADIKEMQNLSFQDCYSSKFLKHWDHLTQVKKPVIAAVNGYAFGGGCELAMMCDIIYAGEKAQFAQPEILIGTIPGAGGTQRLTRAVGKSLAMEMVLTGDRISAQDAKQAGLVSKICPVETLVEEAIQCAEKIASNSKIVVAMAKESVNAAFEMTLTEGSKLEKKLFYSTFATDDRKEGMTAFVEKRKANFKDQ
B8: sp¦O43143¦DHX15_HUMAN (protein, UniProt O43143 1-795, looked up)
ATP-dependent RNA helicase …: MSKRHRLDLGEDYPSGKKRAGTDGKDRDRDRDREDRSKDRDRERDRGDREREREKEKEKELRASTNAMLISAGLPPLKASHSAHSTHSAHSTHSTHSAHSTHAGHAGHTSLPQCINPFTNLPHTPRYYDILKKRLQLPVWEYKDRFTDILVRHQSFVLVGETGSGKTTQIPQWCVEYMRSLPGPKRGVACTQPRRVAAMSVAQRVADEMDVMLGQEVGYSIRFEDCSSAKTILKYMTDGMLLREAMNDPLLERYGVIILDEAHERTLATDILMGVLKEVVRQRSDLKVIVMSATLDAGKFQIYFDNCPLLTIPGRTHPVEIFYTPEPERDYLEAAIRTVIQIHMCEEEEGDLLLFLTGQEEIDEACKRIKREVDDLGPEVGDIKIIPLYSTLPPQQQQRIFEPPPPKKQNGAIGRKVVVSTNIAETSLTIDGVVFVIDPGFAKQKVYNPRIRVESLLVTAISKASAQQRAGRAGRTRPGKCFRLYTEKAYKTEMQDNTYPEILRSNLGSVVLQLKKLGIDDLVHFDFMDPPAPETLMRALELLNYLAALNDDGDLTELGSMMAEFPLDPQLAKMVIASCDYNCSNEVLSITAMLSVPQCFVRPTEAKKAADEAKMRFAHIDGDHLTLLNVYHAFKQNHESVQWCYDNFINYRSLMSADNVRQQLSRIMDRFNLPRRSTDFTSRDYYINIRKALVTGYFMQVAHLERTGHYLTVKDNQVVQLHPSTVLDHKPEWVLYNEFVLTTKNYIRTCTDIKPEWLVKIAPQYYDMSNFPQCEAKRQLDRIIAKLQSKEYSQY
B9: sp¦Q9BS26¦ERP44_HUMAN (protein, UniProt Q9BS26 30-406, looked up)
Endoplasmic reticulum …: EITSLDTENIDEILNNADVALVNFYADWCRFSQMLHPIFEEASDVIKEEFPNENQVVFARVDCDQHSDIAQRYRISKYPTLKLFRNGMMMKREYRGQRSVKALADYIRQQKSDPIQEIRDLAEITTLDRSKRNIIGYFEQKDSDNYRVFERVANILHDDCAFLSAFGDVSKPERYSGDNIIYKPPGHSAPDMVYLGAMTNFDVTYNWIQDKCVPLVREITFENGEELTEEGLPFLILFHMKEDTESLEIFQNEVARQLISEKGTINFLHADCDKFRHPLLHIQKTPADCPVIAIDSFRHMYVFGDFKDVLIPGKLKQFVFDLHSGKLHREFHHGPDPTDTAPGEQAQDVASSPPESSFQKLAPSEYRYTLLRDRDEL
B10: sp¦Q14697¦GANAB_HUMAN (protein, UniProt Q14697 29-944, looked up)
Neutral alpha-glucosidase AB: ITLAVDRSNFKTCEESSFCKRQRSIRPGLSPYRALLDSLQLGPDSLTVHLIHEVTKVLLVLELQGLQKNMTRFRIDELEPRRPRYRVPDVLVADPPIARLSVSGRDENSVELTMAEGPYKIILTARPFRLDLLEDRSLLLSVNARGLLEFEHQRAPRVSQGSKDPAEGDGAQPEETPRDGDKPEETQGKAEKDEPGAWEETFKTHSDSKPYGPMSVGLDFSLPGMEHVYGIPEHADNLRLKVTEGGEPYRLYNLDVFQYELYNPMALYGSVPVLLAHNPHRDLGIFWLNAAETWVDISSNTAGKTLFGKMMDYLQGSGETPQTDVRWMSETGIIDVFLLLGPSISDVFRQYASLTGTQALPPLFSLGYHQSRWNYRDEADVLEVDQGFDDHNLPCDVIWLDIEHADGKRYFTWDPSRFPQPRTMLERLASKRRKLVAIVDPHIKVDSGYRVHEELRNLGLYVKTRDGSDYEGWCWPGSAGYPDFTNPTMRAWWANMFSYDNYEGSAPNLFVWNDMNEPSVFNGPEVTMLKDAQHYGGWEHRDVHNIYGLYVHMATADGLRQRSGGMERPFVLARAFFAGSQRFGAVWTGDNTAEWDHLKISIPMCLSLGLVGLSFCGADVGGFFKNPEPELLVRWYQMGAYQPFFRAHAHLDTGRREPWLLPSQHNDIIRDALGQRYSLLPFWYTLLYQAHREGIPVMRPLWVQYPQDVTTFNIDDQYLLGDALLVHPVSDSGAHGVQVYLPGQGEVWYDIQSYQKHHGPQTLYLPVTLSSIPVFQRGGTIVPRWMRVRRSSECMKDDPITLFVALSPQGTAQGELFLDDGHTFNYQTRQEFLLRRFSFSGNTLVSSSADPEGHFETPIWIERVVIIGAGKPAAVVLQTKGSPESRLSFQHDPETSVLVLRKPGINVASDWSIHLR
B11: sp¦Q13423¦NNTM_HUMAN (protein, UniProt Q13423 44-1086, looked up)
NAD(P) transhydrogenase, …: CKAPVKPGIPYKQLTVGVPKEIFQNEKRVALSPAGVQNLVKQGFNVVVESGAGEASKFSDDHYRVAGAQIQGAKEVLASDLVVKVRAPMVNPTLGVHEADLLKTSGTLISFIYPAQNPELLNKLSQRKTTVLAMDQVPRVTIAQGYDALSSMANIAGYKAVVLAANHFGRFFTGQITAAGKVPPAKILIVGGGVAGLASAGAAKSMGAIVRGFDTRAAALEQFKSLGAEPLEVDLKESGEGQGGYAKEMSKEFIEAEMKLFAQQCKEVDILISTALIPGKKAPVLFNKEMIESMKEGSVVVDLAAEAGGNFETTKPGELYIHKGITHIGYTDLPSRMATQASTLYSNNITKLLKAISPDKDNFYFDVKDDFDFGTMGHVIRGTVVMKDGKVIFPAPTPKNIPQGAPVKQKTVAELEAEKAATITPFRKTMSTASAYTAGLTGILGLGIAAPNLAFSQMVTTFGLAGIVGYHTVWGVTPALHSPLMSVTNAISGLTAVGGLALMGGHLYPSTTSQGLAALAAFISSVNIAGGFLVTQRMLDMFKRPTDPPEYNYLYLLPAGTFVGGYLAALYSGYNIEQIMYLGSGLCCVGALAGLSTQGTARLGNALGMIGVAGGLAATLGVLKPGPELLAQMSGAMALGGTIGLTIAKRIQISDLPQLVAAFHSLVGLAAVLTCIAEYIIEYPHFATDAAANLTKIVAYLGTYIGGVTFSGSLIAYGKLQGLLKSAPLLLPGRHLLNAGLLAASVGGIIPFMVDPSFTTGITCLGSVSALSAVMGVTLTAAIGGADMPVVITVLNSYSGWALCAEGFLLNNNLLTIVGALIGSSGAILSYIMCVAMNRSLANVILGGYGTTSTAGGKPMEISGTHTEINLDNAIDMIREANSIIITPGYGLCAAKAQYPIADLVKMLTEQGKKVRFGIHPVAGRMPGQLNVLLAEAGVPYDIVLEMDEINHDFPDTDLVLVIGANDTVNSAAQEDPNSIIAGMPVLEVWKSKQVIVMKRSLGVGYAAVDNPIFYKPNTAMLLGDAKKTCDALQAKVRESYQK

These molecules were tested on human HL60 cells (assay: SWATH-MS proteomics, differential protein representation, akirin2 KO vs WT HL60 cells). Conditions: akirin2 KO vs WT HL60 cells, SWATH-MS; sheet "Under-represented in KO".
Type: cell-based
How it was run: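 Differential representation compares akirin2 KO with WT HL60 across three biological replicates, 5 µg digest each, acquired by data-independent SWATH on a 120-min gradient. Library built from combined IDA runs searched with Paragon; proteins accepted at 1% FDR, with total-area-sum normalization.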

Compared with B1, B2 is higher in “Fold Change” value: 0.8331 for the first, 0.8354 for the second.

First: B3
Second: B4
The “Fold Change” value of the first is lower: 0.8398 for the first, 0.8402 for the second.

Compared with B5, B6 is higher in “Fold Change” value: 0.8427 for the first, 0.8428 for the second.

Going from B7 to B8, the “Fold Change” value rises from 0.8444 to 0.845.

First: B9
Second: B10
The “Fold Change” value of the first is lower: 0.8499 for the first, 0.851 for the second.

With B11 the “Fold Change” value was 0.8519.

B1 and B2 are within 0.2 log units of each other in “Log (Fold Change)” value: -0.07932 for the first, -0.07813 for the second.

B3 and B4 are within 0.2 log units of each other in “Log (Fold Change)” value: -0.07581 for the first, -0.07562 for the second.

B5 and B6 are within 0.2 log units of each other in “Log (Fold Change)” value: -0.07434 for the first, -0.07428 for the second.

B7 and B8 are within 0.2 log units of each other in “Log (Fold Change)” value: -0.07343 for the first, -0.07313 for the second.

B9 and B10 are within 0.2 log units of each other in “Log (Fold Change)” value: -0.07066 for the first, -0.07007 for the second.

With B11 the “Log (Fold Change)” value was -0.06959.
